Results on 39 molecules are retold here after the supplement of paper PMC10077471.

Over roughly 1,900 compounds, “excess over highest single agent (ExcessHSA) synergy score, 6x6 matrix” has its median near -83; the lowest 2% begin near -370. The list shows a part of the results.

The test system of this test is NCI-H446. In words: excess over highest single agent (ExcessHSA) synergy score, 6x6 matrix; higher = less synergy (more negative = stronger synergy). The note with it: 72 h; CellTiter-Glo viability. On the technique in general: ATP-based viability assays read luminescence as a measure of living cells.
For `N[C@@H](CC(=O)N1CCn2c(nnc2C(F)(F)F)C1)Cc1cc(F)c(F)cc1F` + Cc1sc2c(c1C)C(c1ccc(Cl)cc1)=N[C@@H](CC(=O)OC(C)(C)C)c1nnc(C)n1-2 [NCGC00250412-19], the “excess over highest single agent” value is -133.

`CCOC(=O)c1cncn1[C@H](C)c1ccccc1` + Cc1sc2c(c1C)C(c1ccc(Cl)cc1)=N[C@@H](CC(=O)OC(C)(C)C)c1nnc(C)n1-2 [NCGC00250412-19]: the “excess over highest single agent” value was -37.5.

`COc1nc(C)cnc1NS(=O)(=O)c1cccnc1-c1ccc(-c2nnco2)cc1` + Cc1sc2c(c1C)C(c1ccc(Cl)cc1)=N[C@@H](CC(=O)OC(C)(C)C)c1nnc(C)n1-2 [NCGC00250412-19]: the “excess over highest single agent” value was -73.3.

Regarding `Cc1oc(=O)oc1CN1CCN(c2cc3c(cc2F)c(=O)c(C(=O)O)c2n3C(C)S2)CC1` (centres undefined) + Cc1sc2c(c1C)C(c1ccc(Cl)cc1)=N[C@@H](CC(=O)OC(C)(C)C)c1nnc(C)n1-2 [NCGC00250412-19], the “excess over highest single agent” value was -73.5.

As for `C/C(O)=C(\C#N)C(=O)Nc1ccc(C(F)(F)F)cc1` + Cc1sc2c(c1C)C(c1ccc(Cl)cc1)=N[C@@H](CC(=O)OC(C)(C)C)c1nnc(C)n1-2 [NCGC00250412-19], the “excess over highest single agent” value was -121.

Regarding `CC(=O)Nc1ccc([C@H](C)C(=O)Nc2ncc(C(C)C)s2)cc1` + Cc1sc2c(c1C)C(c1ccc(Cl)cc1)=N[C@@H](CC(=O)OC(C)(C)C)c1nnc(C)n1-2 [NCGC00250412-19], the “excess over highest single agent” value is -80.7.

On to `COc1cc2ncn(-c3cc(OCc4ccccc4S(C)(=O)=O)c(C#N)s3)c2cc1OC` + Cc1sc2c(c1C)C(c1ccc(Cl)cc1)=N[C@@H](CC(=O)OC(C)(C)C)c1nnc(C)n1-2 [NCGC00250412-19], for which the “excess over highest single agent” value stood at 137.

Consider `Cn1cc(/C=C/C(=O)c2cccc(F)c2)cc1/C=C/C(=O)NO` + Cc1sc2c(c1C)C(c1ccc(Cl)cc1)=N[C@@H](CC(=O)OC(C)(C)C)c1nnc(C)n1-2 [NCGC00250412-19], for which the “excess over highest single agent” value is -14.

Regarding `C[C@@H](Oc1cc(-c2cnn(C3CCNCC3)c2)cnc1N)c1c(Cl)ccc(F)c1Cl` + Cc1sc2c(c1C)C(c1ccc(Cl)cc1)=N[C@@H](CC(=O)OC(C)(C)C)c1nnc(C)n1-2 [NCGC00250412-19], the “excess over highest single agent” value was -74.5.

`COCCCOc1ccnc(C[S+]([O-])c2nc3ccccc3[nH]2)c1C` (centres undefined) + Cc1sc2c(c1C)C(c1ccc(Cl)cc1)=N[C@@H](CC(=O)OC(C)(C)C)c1nnc(C)n1-2 [NCGC00250412-19]: the “excess over highest single agent” value is 9.81.

`CC(=O)C1=C(O)C=C2Oc3c(C(C)=O)c(O)c(C)c(O)c3C2(C)C1=O` (centres undefined) + Cc1sc2c(c1C)C(c1ccc(Cl)cc1)=N[C@@H](CC(=O)OC(C)(C)C)c1nnc(C)n1-2 [NCGC00250412-19]: the “excess over highest single agent” value was -78.6.

For `O=C(O)c1ccc(-c2cc3cccnc3c(-c3ccc4nonc4c3)n2)cc1` + Cc1sc2c(c1C)C(c1ccc(Cl)cc1)=N[C@@H](CC(=O)OC(C)(C)C)c1nnc(C)n1-2 [NCGC00250412-19], the “excess over highest single agent” value turned out to be 29.4.

With `Cc1c(CN2CCN(S(C)(=O)=O)CC2)sc2c(N3CCOCC3)nc(-c3cnc(N)nc3)nc12` + Cc1sc2c(c1C)C(c1ccc(Cl)cc1)=N[C@@H](CC(=O)OC(C)(C)C)c1nnc(C)n1-2 [NCGC00250412-19], the “excess over highest single agent” value was -334.

`COc1cc2ncnc(Nc3ccc(F)c(Cl)c3)c2cc1NC(=O)/C=C/CN1CCCCC1` + Cc1sc2c(c1C)C(c1ccc(Cl)cc1)=N[C@@H](CC(=O)OC(C)(C)C)c1nnc(C)n1-2 [NCGC00250412-19]: the “excess over highest single agent” value was -240.

In the case of `Nc1nccc(-c2ccc3noc(-c4ccc(Cl)cc4)c3c2)n1` + Cc1sc2c(c1C)C(c1ccc(Cl)cc1)=N[C@@H](CC(=O)OC(C)(C)C)c1nnc(C)n1-2 [NCGC00250412-19], the “excess over highest single agent” value amounted to 114.

As to `CCCc1nc2c(C)cc(-c3nc4ccccc4n3C)cc2n1Cc1ccc(-c2ccccc2C(=O)O)cc1` + Cc1sc2c(c1C)C(c1ccc(Cl)cc1)=N[C@@H](CC(=O)OC(C)(C)C)c1nnc(C)n1-2 [NCGC00250412-19], the “excess over highest single agent” value is -202.

Take `OCCC#Cc1nc(-c2ccc(F)cc2)c(-c2ccncc2)n1CCCc1ccccc1` + Cc1sc2c(c1C)C(c1ccc(Cl)cc1)=N[C@@H](CC(=O)OC(C)(C)C)c1nnc(C)n1-2 [NCGC00250412-19]: the “excess over highest single agent” value is -12.7.

For `COCCCOc1cc(C[C@@H](C[C@H](N)[C@@H](O)C[C@H](C(=O)NCC(C)(C)C(N)=O)C(C)C)C(C)C)ccc1OC` + Cc1sc2c(c1C)C(c1ccc(Cl)cc1)=N[C@@H](CC(=O)OC(C)(C)C)c1nnc(C)n1-2 [NCGC00250412-19], the “excess over highest single agent” value is -280.

For the molecule `Cc1ccc(C(=O)N(CCCN)[C@@H](c2nc3cc(Cl)ccc3c(=O)n2Cc2ccccc2)C(C)C)cc1` + Cc1sc2c(c1C)C(c1ccc(Cl)cc1)=N[C@@H](CC(=O)OC(C)(C)C)c1nnc(C)n1-2 [NCGC00250412-19], the “excess over highest single agent” value is -135.

Turning to `[Cl][Pt+2][Cl].[NH2-].[NH2-]` + Cc1sc2c(c1C)C(c1ccc(Cl)cc1)=N[C@@H](CC(=O)OC(C)(C)C)c1nnc(C)n1-2 [NCGC00250412-19], the “excess over highest single agent” value was found to be 5.09.

For the molecule `CC1=CC(=O)c2ccccc2C1=O` + Cc1sc2c(c1C)C(c1ccc(Cl)cc1)=N[C@@H](CC(=O)OC(C)(C)C)c1nnc(C)n1-2 [NCGC00250412-19], the “excess over highest single agent” value amounted to 121.

Consider `C[C@@H](NCc1cc2ccccc2[nH]1)c1cccc2ccccc12` + Cc1sc2c(c1C)C(c1ccc(Cl)cc1)=N[C@@H](CC(=O)OC(C)(C)C)c1nnc(C)n1-2 [NCGC00250412-19], for which the “excess over highest single agent” value was -17.7.

Regarding `CC(C)Oc1cc(Nc2nc(N[C@@H](C)c3ccc(F)cn3)ncc2Cl)n[nH]1` + Cc1sc2c(c1C)C(c1ccc(Cl)cc1)=N[C@@H](CC(=O)OC(C)(C)C)c1nnc(C)n1-2 [NCGC00250412-19], the “excess over highest single agent” value was -396.

`Cc1ccc2nc(NCCN)c3ncc(C)n3c2c1` + Cc1sc2c(c1C)C(c1ccc(Cl)cc1)=N[C@@H](CC(=O)OC(C)(C)C)c1nnc(C)n1-2 [NCGC00250412-19]: the “excess over highest single agent” value is -177.

For `Cc1c(NC(=O)OC[C@@H]2COCCN2)cn2ncnc(Nc3ccc4c(cnn4Cc4cccc(F)c4)c3)c12` + Cc1sc2c(c1C)C(c1ccc(Cl)cc1)=N[C@@H](CC(=O)OC(C)(C)C)c1nnc(C)n1-2 [NCGC00250412-19], the “excess over highest single agent” value is -141.

Turning to `CN1C(=O)C[C@@H](C(=O)N[C@@H](Cc2c[nH]cn2)C(=O)N2CCC[C@H]2C(N)=O)NC1=O` + Cc1sc2c(c1C)C(c1ccc(Cl)cc1)=N[C@@H](CC(=O)OC(C)(C)C)c1nnc(C)n1-2 [NCGC00250412-19], the “excess over highest single agent” value stood at 29.5.

Regarding `O=C(O)c1nn(Cc2ccc(Cl)cc2Cl)c2ccccc12` + Cc1sc2c(c1C)C(c1ccc(Cl)cc1)=N[C@@H](CC(=O)OC(C)(C)C)c1nnc(C)n1-2 [NCGC00250412-19], the “excess over highest single agent” value is -191.

For `CC(C[N+](C)(C)C)OC(N)=O` (centres undefined) + Cc1sc2c(c1C)C(c1ccc(Cl)cc1)=N[C@@H](CC(=O)OC(C)(C)C)c1nnc(C)n1-2 [NCGC00250412-19], the “excess over highest single agent” value came to 34.8.

For the molecule `CN(C)CCN(Cc1ccc(Cl)cc1)c1ccccn1` + Cc1sc2c(c1C)C(c1ccc(Cl)cc1)=N[C@@H](CC(=O)OC(C)(C)C)c1nnc(C)n1-2 [NCGC00250412-19], the “excess over highest single agent” value is -131.

In the case of `Cc1cn([C@H]2C[C@H](N=[N+]=[N-])[C@@H](CO)O2)c(=O)[nH]c1=O` + Cc1sc2c(c1C)C(c1ccc(Cl)cc1)=N[C@@H](CC(=O)OC(C)(C)C)c1nnc(C)n1-2 [NCGC00250412-19], the “excess over highest single agent” value is -104.

Turning to `COc1ccc([C@@H]2Sc3ccccc3N(CCN(C)C)C(=O)[C@@H]2OC(C)=O)cc1` + Cc1sc2c(c1C)C(c1ccc(Cl)cc1)=N[C@@H](CC(=O)OC(C)(C)C)c1nnc(C)n1-2 [NCGC00250412-19], the “excess over highest single agent” value is -36.1.

As for `Cn1c(=O)c(-c2c(Cl)cccc2Cl)cc2cnc(Nc3cccc(C(=O)O)c3)nc21` + Cc1sc2c(c1C)C(c1ccc(Cl)cc1)=N[C@@H](CC(=O)OC(C)(C)C)c1nnc(C)n1-2 [NCGC00250412-19], the “excess over highest single agent” value is -131.

`Cc1ccc(-c2ncn(-c3ccc(Nc4nccc(-c5cccc(N6CCOCC6)c5)n4)cc3)n2)cn1` + Cc1sc2c(c1C)C(c1ccc(Cl)cc1)=N[C@@H](CC(=O)OC(C)(C)C)c1nnc(C)n1-2 [NCGC00250412-19]: the “excess over highest single agent” value was -78.7.

As to `CCNC(=O)c1noc(-c2cc(C(C)C)c(O)cc2O)c1-c1ccc(CN2CCOCC2)cc1` + Cc1sc2c(c1C)C(c1ccc(Cl)cc1)=N[C@@H](CC(=O)OC(C)(C)C)c1nnc(C)n1-2 [NCGC00250412-19], the “excess over highest single agent” value was -382.

With `COc1cccc(N(C)C(=S)Oc2ccc3c(c2)CCCC3)n1` + Cc1sc2c(c1C)C(c1ccc(Cl)cc1)=N[C@@H](CC(=O)OC(C)(C)C)c1nnc(C)n1-2 [NCGC00250412-19], the “excess over highest single agent” value is -36.

For the molecule `CNCc1ccc(-c2[nH]c3cc(F)cc4c3c2CCNC4=O)cc1` + Cc1sc2c(c1C)C(c1ccc(Cl)cc1)=N[C@@H](CC(=O)OC(C)(C)C)c1nnc(C)n1-2 [NCGC00250412-19], the “excess over highest single agent” value is -53.1.

`CC(C)(O)CCc1ccc(OCc2cc(-c3cccc(OC(F)F)c3)c3ncccc3c2)cc1` + Cc1sc2c(c1C)C(c1ccc(Cl)cc1)=N[C@@H](CC(=O)OC(C)(C)C)c1nnc(C)n1-2 [NCGC00250412-19]: the “excess over highest single agent” value was 48.5.

`C[C@@H]1C[C@@H]([C@H](O)CC2CC(=O)NC(=O)C2)C(=O)[C@@H](C)C1` + Cc1sc2c(c1C)C(c1ccc(Cl)cc1)=N[C@@H](CC(=O)OC(C)(C)C)c1nnc(C)n1-2 [NCGC00250412-19]: the “excess over highest single agent” value was -14.5.

Turning to `Cc1cnc(-c2cnc(NCCNc3ccc(C#N)cn3)nc2-c2ccc(Cl)cc2Cl)[nH]1` + Cc1sc2c(c1C)C(c1ccc(Cl)cc1)=N[C@@H](CC(=O)OC(C)(C)C)c1nnc(C)n1-2 [NCGC00250412-19], the “excess over highest single agent” value came out at 58.7.
